Data published in patent US20160145222A1, “Methods for Controlling Pests in Soybean” (BASF SE, priority 2013, published 2016).
Some results were stated once for a whole list of compounds, not compound by compound.

Tests used:
Type in all cases: in vivo
[1] = tested on: Nezara viridula; test: Green Soldier Stink Bug (Nezara viridula) spray test on soybean pods; settings: sprayed, late 3rd instar N. viridula, after 5 days
[2] = tested on: Halyomorpha halys; test: Brown Marmorated Stink Bug (Halyomorpha halys) spray test on peanuts and soybean seeds; settings: 100 ppm; sprayed; adult stage H. halys; after 5 days
[3] = tested on: Euschistus heros; test: Neotropical Brown Stink Bug (Euschistus heros) spray test on soybean pods; settings: 100 ppm; sprayed; adult stage E. heros; after 5 days

Measured: mortality in comparison with untreated controls

Cc1cc(C2=NSC(c3cc(Cl)c(F)c(Cl)c3)(C(F)(F)F)C2)ccc1C(=O)NCC(=O)NCC1CC1 (racemic) [Compound 2-56]
over 75%: [1]; 100 ppm | [1]; 500 ppm | [2] | [3]

Cc1cc(C2=NSC(c3cc(Cl)c(F)c(Cl)c3)(C(F)(F)F)C2)ccc1C(=O)NCC1(C#N)CC1 (stereo not shown) [Compound 2-18]
over 75%: [1]; 100 ppm | [1]; 500 ppm | [2] | [3]

Cc1cc(C2=NSC(c3cc(Cl)cc(Cl)c3)(C(F)(F)F)C2)ccc1C(=O)NNC(=O)NCC(F)F (stereo not shown) [Compound 2-16]
over 75%: [1]; 100 ppm | [1]; 500 ppm | [2] | [3]

Cc1cc(C2=NSC(c3cc(Cl)cc(Cl)c3)(C(F)(F)F)C2)ccc1C(=O)NNC(=O)NCC(F)(F)F (stereo not shown) [Compound 2-13]
over 75%: [1]; 100 ppm | [1]; 500 ppm | [2] | [3]
